This note sets out measurements from paper PMC3617099.

Chains of the proteins cited; added tags and fusions are not shown.
UniProt P04150: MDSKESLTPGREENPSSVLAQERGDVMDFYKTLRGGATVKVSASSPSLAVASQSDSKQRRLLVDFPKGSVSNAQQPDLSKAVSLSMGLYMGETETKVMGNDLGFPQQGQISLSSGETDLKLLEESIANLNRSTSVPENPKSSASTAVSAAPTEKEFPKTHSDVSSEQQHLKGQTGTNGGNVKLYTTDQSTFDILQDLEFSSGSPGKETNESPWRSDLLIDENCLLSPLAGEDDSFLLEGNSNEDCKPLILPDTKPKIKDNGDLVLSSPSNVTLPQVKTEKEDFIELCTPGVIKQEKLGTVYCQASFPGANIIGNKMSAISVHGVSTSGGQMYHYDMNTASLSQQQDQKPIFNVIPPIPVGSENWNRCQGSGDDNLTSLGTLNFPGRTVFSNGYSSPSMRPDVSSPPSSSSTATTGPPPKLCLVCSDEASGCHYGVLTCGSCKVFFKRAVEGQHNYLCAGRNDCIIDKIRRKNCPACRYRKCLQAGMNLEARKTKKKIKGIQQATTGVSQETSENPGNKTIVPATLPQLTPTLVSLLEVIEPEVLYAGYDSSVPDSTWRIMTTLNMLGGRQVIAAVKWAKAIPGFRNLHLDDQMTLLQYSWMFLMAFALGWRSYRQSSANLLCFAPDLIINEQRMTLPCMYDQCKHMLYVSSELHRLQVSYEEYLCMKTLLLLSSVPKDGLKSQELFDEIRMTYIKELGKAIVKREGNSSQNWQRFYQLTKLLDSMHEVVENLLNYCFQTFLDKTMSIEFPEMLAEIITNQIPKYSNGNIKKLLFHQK
UniProt O60244: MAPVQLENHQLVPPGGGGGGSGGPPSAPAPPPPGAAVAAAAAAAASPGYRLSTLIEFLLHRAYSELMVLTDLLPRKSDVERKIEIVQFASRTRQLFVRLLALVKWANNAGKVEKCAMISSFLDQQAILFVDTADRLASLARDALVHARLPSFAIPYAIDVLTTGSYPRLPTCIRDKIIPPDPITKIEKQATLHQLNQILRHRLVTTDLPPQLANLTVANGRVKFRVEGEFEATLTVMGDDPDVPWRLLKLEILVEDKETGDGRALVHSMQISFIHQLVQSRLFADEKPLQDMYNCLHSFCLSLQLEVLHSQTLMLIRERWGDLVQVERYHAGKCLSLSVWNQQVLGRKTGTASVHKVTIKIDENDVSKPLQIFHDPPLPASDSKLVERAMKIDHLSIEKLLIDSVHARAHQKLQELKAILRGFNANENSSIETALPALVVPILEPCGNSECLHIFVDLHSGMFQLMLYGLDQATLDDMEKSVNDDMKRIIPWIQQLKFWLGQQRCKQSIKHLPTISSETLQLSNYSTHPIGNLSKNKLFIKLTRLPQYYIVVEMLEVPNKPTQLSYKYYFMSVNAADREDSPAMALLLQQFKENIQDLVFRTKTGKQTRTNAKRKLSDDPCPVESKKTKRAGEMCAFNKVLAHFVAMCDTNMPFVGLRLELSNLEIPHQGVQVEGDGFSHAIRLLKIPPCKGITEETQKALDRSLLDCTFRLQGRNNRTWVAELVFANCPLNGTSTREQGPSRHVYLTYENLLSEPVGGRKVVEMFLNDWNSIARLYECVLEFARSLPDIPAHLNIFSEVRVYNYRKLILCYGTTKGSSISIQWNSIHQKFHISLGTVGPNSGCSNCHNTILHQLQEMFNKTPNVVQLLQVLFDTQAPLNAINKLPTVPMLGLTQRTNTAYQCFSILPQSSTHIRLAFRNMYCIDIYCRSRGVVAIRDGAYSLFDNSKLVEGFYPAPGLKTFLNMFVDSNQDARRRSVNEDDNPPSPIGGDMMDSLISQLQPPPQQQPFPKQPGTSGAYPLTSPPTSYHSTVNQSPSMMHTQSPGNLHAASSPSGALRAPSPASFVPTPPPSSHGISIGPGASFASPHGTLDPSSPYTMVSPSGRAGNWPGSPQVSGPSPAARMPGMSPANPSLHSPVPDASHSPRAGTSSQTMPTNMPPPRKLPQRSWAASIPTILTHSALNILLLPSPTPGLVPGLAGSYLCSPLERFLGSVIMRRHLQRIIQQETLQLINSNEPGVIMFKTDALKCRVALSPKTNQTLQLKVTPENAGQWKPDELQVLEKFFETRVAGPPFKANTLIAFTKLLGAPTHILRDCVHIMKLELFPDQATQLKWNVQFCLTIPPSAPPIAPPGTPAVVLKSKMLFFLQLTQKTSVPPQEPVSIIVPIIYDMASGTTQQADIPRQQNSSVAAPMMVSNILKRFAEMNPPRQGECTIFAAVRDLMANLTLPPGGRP

Results are given in words; binding and its absence hold for the method and conditions named. Binding seen in cells or lysates may run through a third protein. Some binding calls cover weakened binding; strength is not graded here.

This assay addresses glucocorticoid receptor (GR) (human (endogenous in HASM cells)) (UniProt P04150). Put plainly: co-IP; anti-GR rabbit IgG on Protein G Dynabeads, native conditions, 2 h at 4°C, eluted at pH 3.0; nuclear extracts of HASM cells, unstimulated or treated with IL-13, DEX or IL-13+DEX, with or without pretreatment with U0126, SP600125 or SB202190; immunoblot for MED14 and phospho-GR Ser211. (A western blot detects proteins with antibodies after separation by electrophoresis.)

Regarding MED14 (from UniProt O60244 1-1454), the binding entry was “binds”.
